This assay in a line: qHTS Assay for Lipid Storage Modulators in Drosophila S3 Cells.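 On cell number change: cells counted by Cell Tracker Red CMTPX staining in the red channel.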 Particulars: BODIPY lipid droplet fluorescence, 18-24 h; for cell number change: measured here: cell count max response, cells fed with added oleic acid. The gist of the method:
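Drosophila S3 cells got compounds at several concentrations plus oleic acid (400 uM solution). Laser-scanning cytometry with 488 nm excitation read lipid droplets at 500-530 nm and cells at 575-640 nm. Percent activity was relative to 20 uM Triacsin C.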
(qHTS replaces the single test concentration by a dilution series.)

Setting [1] is: measured here: lipid fluorescence (Fed channel) AC50, cells fed with added oleic acid.
Where [2] appears, read: measured here: cell number channel AC50, cells fed with added oleic acid.

The list shows a part of the results. Further columns of the screen follow, without active or inactive calls. Most of these compounds were active or inconclusive in the main read-out, so they are no random draw. The note in brackets gives the kind of curve behind each potency; many fits are weak.

One may read the AC50 as the concentration at which the activity in the assay is half-maximal.

For the compound `O=C(CSc1nnc(-c2ccc(F)cc2)o1)N1CCCCC1`, the cell number change was 15.8%. Also, under setting [1], the AC50 was 1160 nM [falling, single point].
On to `CN1CCC(=NNC(=O)C(=O)NCc2ccccc2)CC1`, for which the cell number change was 8.65%. Further, the AC50 under setting [1] was 16400 nM [falling, partial curve].
As to `C=CCNc1nnc(SC2CC(=O)N(c3ccc(OCCC)cc3)C2=O)s1` (centres undefined), the cell number change worked out at 5.36%. The AC50 under setting [1] was 651 nM [falling, full curve, poor fit].
In the case of `Cc1ccc(NC(=O)c2cccc3c2C(=O)N(C2CCCCC2)C3)c(C)c1`, the AC50 was 103 nM [rising, full curve, poor fit] under setting [2] and 116 nM [rising, single point] under setting [1].
For `CCN(CC)C(=O)c1ccc(NS(=O)(=O)c2ccc(/C=C/C(=O)O)cc2)cc1`, under setting [1], the AC50 is 6510 nM [rising, single point].
`C=CCn1c(SCc2nc3ccccc3c(=O)[nH]2)nc2sc3c(c2c1=O)CCCC3`: the cell number change worked out at 5.94%. Also, the AC50 under setting [1] is 4.61 nM [rising, full curve, poor fit].
As for `Cc1cccc(N2CCN(C(=O)c3ccccc3SCC(=O)N3CCCC3)CC2)c1C`, the cell number change amounted to 12.9%.
On to `CC(NC(=S)Nc1ccc(S(N)(=O)=O)cc1)c1ccc2c(c1)OCO2` (centres undefined), for which the cell number change was 20.3%. Further, the AC50 under setting [1] was 16400 nM [rising, single point].
As for `CCCC(C)NC(=O)COc1ccc(S(=O)(=O)c2ccc(OCC(=O)NC(C)CCC)cc2)cc1` (centres undefined), the cell number change is -13.5%. The AC50 under setting [1] is 25900 nM [falling, single point].
Regarding `COc1ccc(S(=O)(=O)N[C@H](C(=O)O)C(C)C)cc1`, the cell number change is -68%. Under setting [2], the concentration at half-maximal activity (AC50) is 29100 nM [falling, single point]. Under setting [1], the AC50 was 2910 nM [falling, full curve].
Take `COc1ccccc1C(=O)Oc1ccc2ccc(=O)oc2c1`: the cell number change was found to be 19.4%. For the same compound, the AC50 under setting [1] is 731 nM [rising, full curve].
Consider `COCc1ccc(C(=O)N(C)CC2CCCN(CCc3ccc(OC)cc3)C2)o1` (centres undefined), for which the AC50 under setting [1] is 5170 nM [falling, single point].
As to `Cc1cccc(Nc2nc(N)nc(CSc3nccc(C)n3)n2)c1`, the cell number change is 12.9%. Also, the AC50 under setting [1] was 820 nM [rising, full curve].
As to `Cc1cccc2sc(NC(=O)CN3C(=O)C4CC=CCC4C3=O)nc12` (centres undefined), the AC50 under setting [1] was 5.17 nM [falling, full curve, poor fit].
For the compound `Cc1ccc(C)c(NC(NC(=O)c2cccnc2)C(Cl)(Cl)Cl)c1` (centres undefined), the cell number change was found to be 8.91%. For the same compound, the AC50 under setting [1] was 4.61 nM [rising, full curve, poor fit].
Take `CNC(=O)c1sccc1SCc1c(Cl)cccc1Cl`: the cell number change was found to be 1.45%. The AC50 under setting [1] is 2910 nM [rising, partial curve].
For the compound `O=C(CN1C(=O)NC2(CCOc3ccccc32)C1=O)NCC(F)(F)F` (centres undefined), the cell number change was -9.52%.
As for `CCOC(=O)C1=C(c2ccccc2)O/C(=C(/C(=O)OC)C(F)(F)F)S1`, the AC50 under setting [1] is 6510 nM [rising, single point].
Take `CN(Cc1cccnc1)C(=O)CNC(=O)COc1ccccc1`: the cell number change came to 0.806%.
As for `CCOc1ccccc1NC(=S)NNS(=O)(=O)c1c(C)cc(C)cc1C`, the cell number change stood at 23.1%. Besides, under setting [1], the AC50 was 4610 nM [rising, full curve, poor fit].
For the compound `C=CCN1C(=O)c2ccc(C(=O)N(CCOC)c3c(N)n(CCCC)c(=O)[nH]c3=O)cc2C1=O`, under setting [1], the concentration at half-maximal activity (AC50) was 2310 nM [rising, partial curve].
On to `CCCCn1c(N)c(N(CC(C)C)C(=O)c2cccs2)c(=O)[nH]c1=O`, for which the cell number change amounted to 1%.
As to `CC(=O)Nc1ccc2nc(-c3cccn3C)[nH]c2c1`, the cell number change was 5.47%.
For the compound `Nc1cc(=O)nc(SCC(=O)N2CCN(c3ccccc3)CC2)n1-c1ccc(F)cc1`, the cell number change was 23.9%. The AC50 under setting [1] was 20600 nM [rising, partial curve, poor fit].
In the case of `Brc1ccc2c(c1)OCCOCCOCCOCCOCCOCCO2`, the cell number change is -13.3%. In addition, the AC50 under setting [1] was 291 nM [falling, single point].
Take `O=C(CN1CCN(Cc2ccccc2Cl)C1=O)NCc1cccnc1`: the cell number change turned out to be 13.5%.
Take `CCN(C(=O)Cn1c(=O)oc2ccccc21)c1ccc(C)c(C)c1`: the cell number change came to 24.3%. Also, the AC50 under setting [1] was 6510 nM [falling, single point].
Regarding `Cc1sc2nc(CSCC(=O)Nc3c(F)cccc3F)[nH]c(=O)c2c1C`, the cell number change came out at 28.4%. In addition, under setting [1], the AC50 is 20600 nM [rising, single point].
Take `CC(=O)c1ccc2noc(-c3cccc(F)c3)c2c1`: the cell number change was determined as 16.1%.
For `COCCCNC(=O)c1ccccc1N(Cc1ccccc1)S(=O)(=O)c1ccccc1`, the cell number change was 1.31%.
For the compound `Cc1cccc(N2CCN(C(=O)COc3ccc4c(C)cc(=O)oc4c3C)CC2)c1C`, the cell number change was -42.2%. The AC50 under setting [2] is 32600 nM [falling, single point].
`Cc1ccc(S(=O)(=O)N2CCC(=O)N(C(COCc3ccc(Cl)cc3)Cc3ccccc3)CC2)cc1` (centres undefined): the cell number change worked out at 0.902%. For the same compound, the AC50 under setting [1] is 1160 nM [rising, full curve, poor fit].
For the compound `CC(=O)Nc1ccc(N2C(=O)CSC2c2cccc(Br)c2)cc1` (centres undefined), the cell number change is -19%.
As for `CC1CCN(C(=O)c2[nH]cnc2C(=O)NC2CCN(C(=O)OC(C)(C)C)CC2)CC1`, the cell number change turned out to be 19.9%. Moreover, the AC50 under setting [2] was 3660 nM [falling, single point]. Also, the AC50 under setting [1] was 6510 nM [falling, single point].
In the case of `Cc1cccc2cc(CN(Cc3cccs3)C(c3nnnn3C3CCCC3)C(C)C)c(=O)[nH]c12` (centres undefined), the cell number change was -31.2%. Also, under setting [2], the AC50 was 5.17 nM [falling, full curve, poor fit]. Further, the AC50 under setting [1] was 1300 nM [rising, partial curve].
For `Cc1ccc(S(=O)(=O)Nc2ccccc2F)cc1C(=O)N1CCCC1`, the cell number change was -6.77%. Moreover, the AC50 under setting [1] is 3260 nM [rising, full curve, poor fit].
As to `CCC(=O)N1CCN(c2ccc(NC(=O)COc3cccc(C)c3C)cc2)CC1`, the cell number change stood at 4.78%.
Regarding `Cc1ccc(-c2nc(N/N=C/c3ccccc3[N+](=O)[O-])c3ccccc3n2)cc1`, the cell number change was -15.5%.
With `OCCN(Cc1ccccc1)Cc1ccccc1Cl`, the cell number change is -31.5%. Besides, the AC50 under setting [2] is 20600 nM [falling, single point]. Besides, the AC50 under setting [1] is 18400 nM [falling, single point].
As for `CCOC(=O)CNC(=O)CSc1nnc(-c2cccc(C)c2)n1-c1ccc(OC)cc1`, the cell number change amounted to 3.67%. For the same compound, the AC50 under setting [1] was 13 nM [rising, full curve].
For `O=C(COc1ccccc1[N+](=O)[O-])Nc1cccc(S(=O)(=O)NC2=NCCCCC2)c1`, the AC50 under setting [1] was 206 nM [rising, full curve, poor fit].
